Measured values taken from article PMC3293916.
Results are given in words; binding and its absence hold for the method and conditions named. In cells and extracts the contact can be indirect. A yes stands for co-enrichment or nearness to the bait. Other partners may have been found. Tags and fused reporters may be left off the sequences shown.

Amino acid sequences for entries named in this document (tags omitted).
UniProt Q10428: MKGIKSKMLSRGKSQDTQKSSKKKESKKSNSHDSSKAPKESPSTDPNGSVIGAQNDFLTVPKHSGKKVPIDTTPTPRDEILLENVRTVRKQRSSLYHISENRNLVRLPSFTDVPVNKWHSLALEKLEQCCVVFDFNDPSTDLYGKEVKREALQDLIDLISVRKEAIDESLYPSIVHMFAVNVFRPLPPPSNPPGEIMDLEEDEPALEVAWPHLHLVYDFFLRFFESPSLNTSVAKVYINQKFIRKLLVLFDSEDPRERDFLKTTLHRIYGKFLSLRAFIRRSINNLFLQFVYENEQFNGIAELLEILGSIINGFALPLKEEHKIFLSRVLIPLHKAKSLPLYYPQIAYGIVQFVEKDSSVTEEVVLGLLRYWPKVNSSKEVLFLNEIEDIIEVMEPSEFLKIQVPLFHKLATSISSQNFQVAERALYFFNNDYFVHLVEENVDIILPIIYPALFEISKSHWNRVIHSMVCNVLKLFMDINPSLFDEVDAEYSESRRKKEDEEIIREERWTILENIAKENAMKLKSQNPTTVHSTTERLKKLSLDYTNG
UniProt P23635: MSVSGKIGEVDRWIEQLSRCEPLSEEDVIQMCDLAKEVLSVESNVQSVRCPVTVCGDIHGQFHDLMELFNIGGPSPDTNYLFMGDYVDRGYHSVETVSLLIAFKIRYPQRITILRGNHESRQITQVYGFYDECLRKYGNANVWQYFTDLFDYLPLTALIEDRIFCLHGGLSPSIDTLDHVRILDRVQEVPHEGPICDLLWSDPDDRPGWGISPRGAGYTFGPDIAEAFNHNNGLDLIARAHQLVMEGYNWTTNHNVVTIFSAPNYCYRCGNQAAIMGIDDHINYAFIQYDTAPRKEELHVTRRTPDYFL
UniProt P23636: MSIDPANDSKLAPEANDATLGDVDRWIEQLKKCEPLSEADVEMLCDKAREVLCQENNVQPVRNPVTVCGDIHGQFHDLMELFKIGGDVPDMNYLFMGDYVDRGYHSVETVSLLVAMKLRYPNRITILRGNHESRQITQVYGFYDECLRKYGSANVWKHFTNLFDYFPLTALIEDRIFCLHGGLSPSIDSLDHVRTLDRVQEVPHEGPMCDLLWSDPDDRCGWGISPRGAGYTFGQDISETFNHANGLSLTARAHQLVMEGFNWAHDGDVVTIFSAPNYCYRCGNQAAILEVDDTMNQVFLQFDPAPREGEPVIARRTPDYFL

T1: Paa1-PK, structural (A) subunit of the PP2A complex tagged with the PK epitope (S. pombe) (UniProt Q9UT08)
T1 sequence: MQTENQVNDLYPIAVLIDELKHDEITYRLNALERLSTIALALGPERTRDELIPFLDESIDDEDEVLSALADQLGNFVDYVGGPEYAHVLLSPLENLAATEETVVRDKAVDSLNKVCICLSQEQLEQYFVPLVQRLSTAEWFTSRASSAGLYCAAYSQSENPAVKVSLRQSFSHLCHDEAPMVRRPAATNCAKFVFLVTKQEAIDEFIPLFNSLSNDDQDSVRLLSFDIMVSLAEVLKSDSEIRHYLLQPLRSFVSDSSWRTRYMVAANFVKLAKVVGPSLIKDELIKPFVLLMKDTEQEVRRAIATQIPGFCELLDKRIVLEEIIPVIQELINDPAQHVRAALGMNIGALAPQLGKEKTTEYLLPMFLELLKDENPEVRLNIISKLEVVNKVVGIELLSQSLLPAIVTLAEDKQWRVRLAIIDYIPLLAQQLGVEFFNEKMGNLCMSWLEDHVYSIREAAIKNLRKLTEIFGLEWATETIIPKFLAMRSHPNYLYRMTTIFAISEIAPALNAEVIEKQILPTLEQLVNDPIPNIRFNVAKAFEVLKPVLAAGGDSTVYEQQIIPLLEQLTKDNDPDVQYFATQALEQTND

B1: SPBP8B7.08c, homologue of the leucine carboxyl methyltransferase Ppm1 (enzyme, UniProt O94257 1-310)
chain: MDITETDLDALKCRSSATKSGYIHDPFIKFFSPSRNSHKPPIINRGTYVRTWSIDHILQKFIESFDGKKQIISLGAGTDTRVFRYISEYGPENLKFIEFDFYPNCIRKIRTIEKHEALKQNIGDYVVDISGGSLVSGSLDIYSYDIREIVHKGFPGFVDFSLPTIVLSECCLCYLEPEEASSLCRWFQNMFATSGIVVYEPIQGMDNFGKMMKANLSARGVILKTLDCYETTEQQRMRFLDYGYSEVIAEDFLTIEETWIPIEEKKRTMSIEMLDELEEWQLLAKHYCLTFAATENLWNQIILQLPHLKT
B2: Pta2 (SPAC1782.05), homologue of the PP2A phosphatase activator (PTPA) (protein, UniProt Q9P7H4 1-352)
chain: MLSREEQNRCFVPVRRILDNEDLKLFKEGDAYKLIDSFICDLDEAVKDKPISASIPQSSSIEHVLNILDRVGEIKQENPAIDNMGSRFGNPAFQSFYDQVYIETPKLHQVFGIEHNAAMEAGRYFYESFGNRKRIDYGSGHELYFMSWLLILKQLGIFTKNDYPALVVRVFVKYVELMRSLQIFYTLEPAGSHGVWGLDDFHFLPFLFGAAQLVNHKYLRPKHVRDPEILEMCRADYMYLGYVYFLNKLKPSVSLRFHSPMIDDISAVKTWSKVNEGMIKMYRAEVLGKLPIMQHYLFGHLIPASPGMSPAPQDGDDSEVTHVHSHYADCCGIKIPSAISAAKNNGSRIPFD

Molecular target: T1, Paa1-PK, structural (A) subunit of the PP2A complex tagged with the PK epitope (S. pombe)
Experiment: affinity purification with mass spectrometry; extracts of exponentially growing Paa1-PK cells (untagged wild type as control) precipitated with mouse anti-PK antibody cross-linked to Protein A Dynabeads, 4°C, 60 min, IP buffer (25 mM Tris pH 7.5, 0.1% Nonidet P-40, 150 mM NaCl); SDS-PAGE, silver stain, bands excised and identified by tandem mass spectrometry; repeated four times

binding, binds:
Par1, regulatory B′ subunit of PP2A (from UniProt Q10428 1-548)
Ppa1, catalytic subunit of PP2A (from UniProt P23635 1-309) (enzyme)
Ppa2, catalytic subunit of PP2A (from UniProt P23636 1-322) (enzyme)
B1
B2
